Assay results: patent publication US11780893B2, “Kv1.3 blockers” (Zealand Pharma A/S, priority 2019, dated 2023)
Some results were stated once for a whole list of compounds, not compound by compound. Bridge positions count the residues as written; N and C are the ends. Square brackets hold non-standard residues; d marks the D form. Peptide text beside a SMILES is read from it. Nle = CCCC[C@H](N)C(=O)O

By UniProt entry, the sequences of proteins in these tests, tags left out.
UniProt P16389, whole entry: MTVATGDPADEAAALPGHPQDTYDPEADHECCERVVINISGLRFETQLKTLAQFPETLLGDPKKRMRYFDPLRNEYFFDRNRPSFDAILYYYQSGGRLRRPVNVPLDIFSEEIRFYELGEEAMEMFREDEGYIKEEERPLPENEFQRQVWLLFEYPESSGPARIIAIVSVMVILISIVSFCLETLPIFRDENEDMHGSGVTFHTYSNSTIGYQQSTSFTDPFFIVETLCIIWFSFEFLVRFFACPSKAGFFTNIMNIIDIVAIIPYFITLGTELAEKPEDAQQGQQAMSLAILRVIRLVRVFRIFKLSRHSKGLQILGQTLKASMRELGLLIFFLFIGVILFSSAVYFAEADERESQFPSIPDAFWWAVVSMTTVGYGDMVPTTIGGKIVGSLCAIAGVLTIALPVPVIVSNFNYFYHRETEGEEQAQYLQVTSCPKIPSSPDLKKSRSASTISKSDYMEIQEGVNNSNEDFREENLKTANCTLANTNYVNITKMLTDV
UniProt P17658, whole entry: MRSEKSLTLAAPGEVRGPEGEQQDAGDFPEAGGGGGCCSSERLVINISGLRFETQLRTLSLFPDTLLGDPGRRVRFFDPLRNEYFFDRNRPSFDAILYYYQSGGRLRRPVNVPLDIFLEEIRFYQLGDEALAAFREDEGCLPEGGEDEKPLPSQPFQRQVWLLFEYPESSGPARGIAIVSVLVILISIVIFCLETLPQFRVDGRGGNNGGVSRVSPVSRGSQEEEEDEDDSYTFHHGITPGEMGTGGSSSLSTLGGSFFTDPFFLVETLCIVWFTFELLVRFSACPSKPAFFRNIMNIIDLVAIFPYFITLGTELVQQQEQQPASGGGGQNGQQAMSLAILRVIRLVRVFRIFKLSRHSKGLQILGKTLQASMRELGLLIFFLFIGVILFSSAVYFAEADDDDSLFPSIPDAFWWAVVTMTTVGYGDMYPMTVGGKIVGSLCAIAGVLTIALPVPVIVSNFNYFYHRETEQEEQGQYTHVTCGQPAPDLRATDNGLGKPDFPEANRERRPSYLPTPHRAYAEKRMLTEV
UniProt Q09470, whole entry: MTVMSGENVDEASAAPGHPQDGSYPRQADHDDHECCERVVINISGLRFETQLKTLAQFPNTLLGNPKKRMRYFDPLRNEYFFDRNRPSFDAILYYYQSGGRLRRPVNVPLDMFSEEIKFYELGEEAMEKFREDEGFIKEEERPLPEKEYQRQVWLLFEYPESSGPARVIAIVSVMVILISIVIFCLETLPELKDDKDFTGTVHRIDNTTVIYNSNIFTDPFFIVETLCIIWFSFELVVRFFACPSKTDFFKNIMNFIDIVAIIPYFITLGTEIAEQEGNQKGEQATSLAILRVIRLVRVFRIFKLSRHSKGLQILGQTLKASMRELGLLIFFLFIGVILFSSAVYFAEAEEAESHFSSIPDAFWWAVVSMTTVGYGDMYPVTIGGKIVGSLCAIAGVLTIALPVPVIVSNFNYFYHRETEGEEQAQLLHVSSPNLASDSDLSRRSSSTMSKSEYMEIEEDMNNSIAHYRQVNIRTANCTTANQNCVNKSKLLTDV
UniProt P22001, whole entry: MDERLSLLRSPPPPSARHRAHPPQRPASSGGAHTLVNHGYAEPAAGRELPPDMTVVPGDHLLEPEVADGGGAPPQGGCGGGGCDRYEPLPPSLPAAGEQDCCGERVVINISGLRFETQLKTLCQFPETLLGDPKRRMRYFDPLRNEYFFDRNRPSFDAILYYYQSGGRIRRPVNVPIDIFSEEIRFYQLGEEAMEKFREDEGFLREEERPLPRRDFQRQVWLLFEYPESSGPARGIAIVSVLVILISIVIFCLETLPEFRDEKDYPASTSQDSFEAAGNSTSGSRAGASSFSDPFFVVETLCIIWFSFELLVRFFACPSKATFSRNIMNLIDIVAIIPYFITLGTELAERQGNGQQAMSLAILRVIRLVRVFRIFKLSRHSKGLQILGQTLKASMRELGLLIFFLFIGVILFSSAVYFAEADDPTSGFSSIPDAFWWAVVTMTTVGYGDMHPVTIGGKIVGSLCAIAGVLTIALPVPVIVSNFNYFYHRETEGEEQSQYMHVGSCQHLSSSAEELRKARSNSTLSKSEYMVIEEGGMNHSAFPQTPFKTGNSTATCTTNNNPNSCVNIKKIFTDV

Assays:
Format in all cases: cell-based
Kv1.2 = target: T1, Kv1.2 (Homo sapiens, UniProt P16389)
T1 construct: expressed in transfected cells; host or cells: Chinese Hamster Ovary (CHO)

Kv1.6 = target: T2, Kv1.6 (Homo sapiens, UniProt P17658)
T2 construct: expressed in transfected cells; host or cells: Chinese Hamster Ovary (CHO)

Kv1.1 = target: T3, Kv1.1 (Homo sapiens, UniProt Q09470)
T3 construct: expressed in transfected cells; host or cells: Chinese Hamster Ovary (CHO)

[1] = target: T4, human Kv1.3 voltage-gated K+ channel (Homo sapiens, UniProt P22001)
T4 construct: host or cells: CHO-DUKX

| Compound | Selectivity Kv1.2/Kv1.3 (Kv1.2) | Selectivity Kv1.6/Kv1.3 (Kv1.6) | Selectivity Kv1.1/Kv1.3 (Kv1.1) | IC50 [1] [nM] |
| --- | --- | --- | --- | --- |
| CC[C@H](C)[C@@H]1NC(=O)[C@H](C)NC(=O)[C@H](CCCCN)NC(=O)[C@H](CC(C)C)NC(=O)[C@@H]2CSSC[C@@H](C(=O)N[C@@H](Cc3ccc(O)cc3)C(=O)N3CCC[C@H]3C(=O)N[C@@H](CCCNC(=N)N)C(=O)O)NC(=O)[C@H](CCCCN)NC(=O)[C@@H]3CSSC[C@H](NC(=O)[C@H](CCC(=O)O)NC(=O)[C@H](C(C)C)NC(=O)[C@H](CO)NC(=O)[C@H](C)NC(=O)[C@H](CO)NC(=O)[C@@H](NC(=O)[C@H](CCCNC(=N)N)NC(=O)[C@H](CCSC)NC(=O)[C@H](CC(=O)O)NC(=O)[C@H](CCSC)NC(=O)[C@@H](N)CCC(N)=O)CSSC[C@H](NC(=O)[C@H](CCCCN)NC(=O)CNC(=O)[C@H](Cc4ccccc4)NC(=O)CNC(=O)[C@H](CCCNC(=N)N)NC(=O)CNC1=O)C(=O)N[C@@H](CCSC)C(=O)N[C@@H](CC(N)=O)C(=O)N[C@@H](CCCCN)C(=O)N[C@@H](CCCCN)C(=O)N3)C(=O)N[C@@H](CCCCN)C(=O)N[C@@H](CCC(N)=O)C(=O)N[C@@H](CCCCN)C(=O)N2 [Compound 2] (H-QMDMRCSASVECKQKCLKAIGRGFGKCMNKKCKCYPR-OH; disulfide 6-27, 12-32, 16-34) | at least 50 | at least 400 | at least 1000 | ≤ 0.3 |
| CC[C@H](C)[C@@H]1NC(=O)[C@H](C)NC(=O)[C@H](CCCCN)NC(=O)[C@H](CC(C)C)NC(=O)[C@@H]2CSSC[C@@H](C(=O)N[C@@H](Cc3ccc(O)cc3)C(=O)N3CCC[C@H]3C(=O)N[C@@H](CCCNC(=N)N)C(N)=O)NC(=O)[C@H](CCCCN)NC(=O)[C@@H]3CSSC[C@H](NC(=O)[C@H](CCC(=O)O)NC(=O)[C@H](C(C)C)NC(=O)[C@H](CO)NC(=O)[C@H](C)NC(=O)[C@H](CO)NC(=O)[C@@H](NC(=O)[C@H](CCCNC(=N)N)NC(=O)[C@H](CCSC)NC(=O)[C@H](CC(=O)O)NC(=O)[C@H](CCSC)NC(=O)[C@@H](N)CC(N)=O)CSSC[C@H](NC(=O)[C@H](CCCCN)NC(=O)CNC(=O)[C@H](Cc4ccccc4)NC(=O)[C@H]([C@@H](C)CC)NC(=O)[C@H](CO)NC(=O)CNC1=O)C(=O)N[C@@H](CCSC)C(=O)N[C@@H](CC(N)=O)C(=O)N[C@@H](CCCCN)C(=O)N[C@@H](CCCCN)C(=O)N3)C(=O)N[C@@H](CCCCN)C(=O)N[C@@H](C(C)C)C(=O)N[C@@H](CCCCN)C(=O)N2 [Compound 17] (H-NMDMRCSASVECKVKCLKAIGSIFGKCMNKKCKCYPR-NH2; disulfide 6-27, 12-32, 16-34) | at least 50 | at least 400 | at least 1000 | ≤ 0.15 |
| CC[C@H](C)[C@@H]1NC(=O)[C@H](C)NC(=O)[C@H](CCCCN)NC(=O)[C@H](CC(C)C)NC(=O)[C@@H]2CSSC[C@@H](C(=O)N[C@@H](Cc3ccc(O)cc3)C(=O)N3CCC[C@H]3C(=O)N[C@@H](CCCNC(=N)N)C(N)=O)NC(=O)[C@H](CCCCN)NC(=O)[C@@H]3CSSC[C@H](NC(=O)[C@H](CCC(=O)O)NC(=O)[C@H](C(C)C)NC(=O)[C@H](CO)NC(=O)[C@H](C)NC(=O)[C@H](CO)NC(=O)[C@@H](NC(=O)[C@H](CCCNC(=N)N)NC(=O)[C@H](CCSC)NC(=O)[C@H](CC(=O)O)NC(=O)[C@H](CCSC)NC(=O)[C@@H](N)CC(N)=O)CSSC[C@H](NC(=O)[C@H](CCCCN)NC(=O)CNC(=O)[C@H](Cc4ccccc4)NC(=O)[C@H](CCCCN)NC(=O)[C@H](CO)NC(=O)CNC1=O)C(=O)N[C@@H](CCSC)C(=O)N[C@@H](CC(N)=O)C(=O)N[C@@H](CCCCN)C(=O)N[C@@H](CCCCN)C(=O)N3)C(=O)N[C@@H](CCCCN)C(=O)N[C@@H](CCC(N)=O)C(=O)N[C@@H](CCCCN)C(=O)N2 [Compound 34] (H-NMDMRCSASVECKQKCLKAIGSKFGKCMNKKCKCYPR-NH2; disulfide 6-27, 12-32, 16-34) | at least 50 | at least 400 | at least 1000 | ≤ 0.15 |
| CCCC[C@@H]1NC(=O)[C@@H]2CSSC[C@H](NC(=O)[C@H](CCCNC(=N)N)NC(=O)[C@H](CCCC)NC(=O)[C@H](CC(=O)O)NC(=O)[C@H](CCCC)NC(=O)[C@@H](N)CC(N)=O)C(=O)N[C@@H](CO)C(=O)N[C@@H](C)C(=O)N[C@@H](CO)C(=O)N[C@@H](C(C)C)C(=O)N[C@@H](CCC(=O)O)C(=O)N[C@H]3CSSC[C@H](NC(=O)[C@H](CCCCN)NC(=O)[C@H](CCCCN)NC(=O)[C@H](CC(N)=O)NC1=O)C(=O)N[C@@H](CCCCN)C(=O)N[C@H](C(=O)N[C@@H](Cc1ccc(O)cc1)C(=O)N1CCC[C@H]1C(=O)N[C@@H](CCCNC(=N)N)C(N)=O)CSSC[C@H](NC(=O)[C@H](CCCCN)NC(=O)[C@H](CCCCN)NC(=O)[C@H](CCCCN)NC3=O)C(=O)N[C@@H](CC(C)C)C(=O)N[C@@H](CCCCN)C(=O)N[C@@H](C)C(=O)N[C@@H]([C@@H](C)CC)C(=O)NCC(=O)N[C@@H](CO)C(=O)N[C@@H]([C@@H](C)CC)C(=O)N[C@@H](Cc1ccccc1)C(=O)NCC(=O)N[C@@H](CCCCN)C(=O)N2 [Compound 45] (H-N[Nle]D[Nle]RCSASVECKKKCLKAIGSIFGKC[Nle]NKKCKCYPR-NH2; disulfide 6-27, 12-32, 16-34) | at least 50 | at least 400 | at least 1000 | ≤ 0.3 |
| CCCC[C@@H]1NC(=O)[C@@H]2CSSC[C@H](NC(=O)[C@H](CCCNC(=N)N)NC(=O)[C@H](CCCC)NC(=O)[C@H](CC(=O)O)NC(=O)[C@H](CCCC)NC(=O)[C@@H](N)CC(N)=O)C(=O)N[C@@H](CO)C(=O)N[C@@H](C)C(=O)N[C@@H](CO)C(=O)N[C@@H](C(C)C)C(=O)N[C@@H](CCC(=O)O)C(=O)N[C@H]3CSSC[C@H](NC(=O)[C@H](CCCCN)NC(=O)[C@H](CCCCN)NC(=O)[C@H](CC(N)=O)NC1=O)C(=O)N[C@@H](CCCCN)C(=O)N[C@H](C(=O)N[C@@H](Cc1ccc(O)cc1)C(=O)N1CCC[C@H]1C(=O)N[C@@H](CCCNC(=N)N)C(N)=O)CSSC[C@H](NC(=O)[C@H](CCCCN)NC(=O)[C@H](CCC(N)=O)NC(=O)[C@H](CCCCN)NC3=O)C(=O)N[C@@H](CCCCN)C(=O)N[C@@H](C)C(=O)N[C@@H]([C@@H](C)CC)C(=O)NCC(=O)N[C@@H](CO)C(=O)N[C@@H]([C@@H](C)CC)C(=O)N[C@@H](Cc1ccccc1)C(=O)NCC(=O)N[C@@H](CCCCN)C(=O)N2 [Compound 49] (H-N[Nle]D[Nle]RCSASVECKQKCKAIGSIFGKC[Nle]NKKCKCYPR-NH2; disulfide 6-26, 12-31, 16-33) | at least 50 | at least 400 | at least 1000 |  |
| CC[C@H](C)[C@@H]1NC(=O)[C@H](C)NC(=O)[C@H](CC(C)C)NC(=O)[C@@H]2CSSC[C@@H](C(=O)N[C@@H](Cc3ccc(O)cc3)C(=O)N3CCC[C@H]3C(=O)N[C@@H](CCCNC(=N)N)C(N)=O)NC(=O)[C@H](CCCCN)NC(=O)[C@@H]3CSSC[C@H](NC(=O)[C@H](CCC(=O)O)NC(=O)[C@H](C(C)C)NC(=O)[C@H](CO)NC(=O)[C@H](C)NC(=O)[C@H](CO)NC(=O)[C@@H](NC(=O)[C@H](CCCNC(=N)N)NC(=O)[C@H](CCSC)NC(=O)[C@H](CC(=O)O)NC(=O)[C@H](CCSC)NC(=O)[C@@H](N)CC(N)=O)CSSC[C@H](NC(=O)[C@H](CCCCN)NC(=O)CNC(=O)[C@H](Cc4ccccc4)NC(=O)[C@H]([C@@H](C)CC)NC(=O)[C@H](CO)NC(=O)CNC1=O)C(=O)N[C@@H](CCSC)C(=O)N[C@@H](CC(N)=O)C(=O)N[C@@H](CCCCN)C(=O)N[C@@H](CCCCN)C(=O)N3)C(=O)N[C@@H](CCCCN)C(=O)N[C@@H](CCC(N)=O)C(=O)N[C@@H](CCCCN)C(=O)N2 [Compound 54] (H-NMDMRCSASVECKQKCLAIGSIFGKCMNKKCKCYPR-NH2; disulfide 6-26, 12-31, 16-33) | at least 50 | at least 400 | at least 1000 |  |
| CC[C@H](C)[C@@H]1NC(=O)[C@H](CCCNC(=N)N)NC(=O)[C@H](CCCCN)NC(=O)[C@H](CC(C)C)NC(=O)[C@@H]2CSSC[C@@H](C(=O)N[C@@H](Cc3ccc(O)cc3)C(=O)N3CCC[C@H]3C(=O)N[C@@H](CCCNC(=N)N)C(N)=O)NC(=O)[C@H](CCCCN)NC(=O)[C@@H]3CSSC[C@H](NC(=O)[C@H](CCC(=O)O)NC(=O)[C@H](C(C)C)NC(=O)[C@H](CO)NC(=O)[C@H](C)NC(=O)[C@H](CO)NC(=O)[C@@H](NC(=O)[C@H](CCCNC(=N)N)NC(=O)[C@H](CCSC)NC(=O)[C@H](CC(=O)O)NC(=O)[C@H](CCSC)NC(=O)[C@@H](N)CC(N)=O)CSSC[C@H](NC(=O)[C@H](CCCCN)NC(=O)CNC(=O)[C@H](Cc4ccccc4)NC(=O)[C@H]([C@@H](C)CC)NC(=O)[C@H](CO)NC(=O)CNC1=O)C(=O)N[C@@H](CCSC)C(=O)N[C@@H](CC(N)=O)C(=O)N[C@@H](CCCCN)C(=O)N[C@@H](CCCCN)C(=O)N3)C(=O)N[C@@H](CCCCN)C(=O)N[C@@H](CCC(N)=O)C(=O)N[C@@H](CCCCN)C(=O)N2 [Compound 56] (H-NMDMRCSASVECKQKCLKRIGSIFGKCMNKKCKCYPR-NH2; disulfide 6-27, 12-32, 16-34) | at least 50 | at least 400 | at least 1000 | ≤ 0.15 |
